From PMC4470020
Results are given in words; binding and its absence hold for the method and conditions named. In cells and extracts the contact can be indirect. Some binding calls cover weakened binding; strength is not graded here.

Amino acid sequences for entries named in this document (tags omitted).
UniProt P05556: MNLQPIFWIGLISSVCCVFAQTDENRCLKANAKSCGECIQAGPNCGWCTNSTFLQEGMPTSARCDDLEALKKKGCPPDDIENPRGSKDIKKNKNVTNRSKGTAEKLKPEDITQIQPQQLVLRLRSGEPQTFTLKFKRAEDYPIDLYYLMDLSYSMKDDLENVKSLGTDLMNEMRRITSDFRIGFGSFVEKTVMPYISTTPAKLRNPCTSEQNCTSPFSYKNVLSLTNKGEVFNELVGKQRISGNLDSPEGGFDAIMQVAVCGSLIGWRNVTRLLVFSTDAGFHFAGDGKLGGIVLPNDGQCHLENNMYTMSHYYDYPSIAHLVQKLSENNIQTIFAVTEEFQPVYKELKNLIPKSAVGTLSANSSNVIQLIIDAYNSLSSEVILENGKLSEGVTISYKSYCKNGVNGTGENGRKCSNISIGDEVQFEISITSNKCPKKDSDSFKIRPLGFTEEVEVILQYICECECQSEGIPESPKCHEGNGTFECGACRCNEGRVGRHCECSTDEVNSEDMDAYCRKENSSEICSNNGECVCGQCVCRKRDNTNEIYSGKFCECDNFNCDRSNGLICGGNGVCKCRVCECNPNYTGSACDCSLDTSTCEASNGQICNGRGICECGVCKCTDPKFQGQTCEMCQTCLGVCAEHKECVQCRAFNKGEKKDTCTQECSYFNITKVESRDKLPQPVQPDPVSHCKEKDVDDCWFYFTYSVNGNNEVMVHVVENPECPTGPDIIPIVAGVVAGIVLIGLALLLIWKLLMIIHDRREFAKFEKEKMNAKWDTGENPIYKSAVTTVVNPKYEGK

Key:
[1] = target: integrin β1 (human (endogenous in HCC827 and NCI-H358)) (UniProt P05556); experiment: co-IP; HCC827 control cells lysed in RIPA buffer without SDS; anti-integrin β1 or anti-claudin-7 antibody at 4 °C overnight, protein A or G beads; washes with RIPA, 0.5 M NaCl and 10 mM Tris pH 7.4; western blot for the other protein
[2] = target: integrin β1 (human (endogenous in HCC827 and NCI-H358)) (UniProt P05556); experiment: co-IP; H358 control cells lysed in RIPA buffer without SDS; anti-integrin β1 or anti-claudin-7 antibody at 4 °C overnight, protein A or G beads; washes with RIPA, 0.5 M NaCl and 10 mM Tris pH 7.4; western blot for the other protein

B1: claudin-7 (protein, UniProt O95471 1-211)
chain: MANSGLQLLGFSMALLGWVGLVACTAIPQWQMSSYAGDNIITAQAMYKGLWMDCVTQSTGMMSCKMYDSVLALSAALQATRALMVVSLVLGFLAMFVATMGMKCTRCGGDDKVKKARIAMGGGIIFIVAGLAALVACSWYGHQIVTDFYNPLIPTNIKYEFGPAIFIGWAGSALVILGGALLSCSCPGNESKAGYRVPRSYPKSNSSKEYV
[1]
  binding: binds
[2]
  binding: binds
